{"source": "PubChem BioAssay AID1259254 (NCATS, 2017)", "test": "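Genome-wide screen for genes that prevent DNA re-replication in cancer cells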 (primary screen)", "cell system": "human HCT116 colorectal cancer cells", "reagents": "single siRNA against human genes", "timing": "3 days", "measured": "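Nuclei stained with Hoechst and imaged; cell-cycle phase assigned by DNA content; G2 share scaled per plate, non-targeting siRNA 0%, GMNN siRNA 100%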", "direction": "G2 robust z-score and G2 cells, % of GMNN control: higher = more G2 cells, more excess DNA replication", "call rule": "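An siRNA counts as active if its G2 robust z-score lies at least 5 MADs above the screen median; here such calls match roughly 38% of GMNN control or more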", "note": "Here is a random part of about 59,000 deposited reagents. Of all reagents, about 1,550 (2.6%) were called active. 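G2 share is only a proxy for re-replication; each gene was hit by three separate siRNAs, and active genes were retested.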 A number with no mark means an inactive call. The numbers tell different reagents against one gene apart. Further read-outs or replicates are left out here. Not given: the amount of reagent."}
{"gene symbol": "RBM4 (RNA binding motif protein 4)", "siRNA no.": 1, "G2 robust z-score": 2.87, "G2 cells, % of GMNN control": 23.2}
{"gene symbol": "RBM4 (RNA binding motif protein 4)", "siRNA no.": 2, "G2 robust z-score": 1.16, "G2 cells, % of GMNN control": 11.1}
{"gene symbol": "RBM4 (RNA binding motif protein 4)", "siRNA no.": 3, "G2 robust z-score": -0.795, "G2 cells, % of GMNN control": -2.62}
{"gene symbol": "SLFN13 (schlafen family member 13)", "siRNA no.": 1, "G2 robust z-score": -0.483, "G2 cells, % of GMNN control": -0.428}
{"gene symbol": "SLFN13 (schlafen family member 13)", "siRNA no.": 2, "G2 robust z-score": -0.794, "G2 cells, % of GMNN control": -2.62}
{"gene symbol": "SLFN13 (schlafen family member 13)", "siRNA no.": 3, "G2 robust z-score": -0.867, "G2 cells, % of GMNN control": -3.13}
{"gene symbol": "SIRPB2 (signal regulatory protein beta 2)", "siRNA no.": 1, "G2 robust z-score": -0.624, "G2 cells, % of GMNN control": -1.42}
{"gene symbol": "SIRPB2 (signal regulatory protein beta 2)", "siRNA no.": 2, "G2 robust z-score": 2.36, "G2 cells, % of GMNN control": 19.6}
{"gene symbol": "SIRPB2 (signal regulatory protein beta 2)", "siRNA no.": 3, "G2 robust z-score": 1.43, "G2 cells, % of GMNN control": 13}
{"gene symbol": "PZP (PZP alpha-2-macroglobulin like)", "siRNA no.": 1, "G2 robust z-score": 1.17, "G2 cells, % of GMNN control": 11.2}
{"gene symbol": "PZP (PZP alpha-2-macroglobulin like)", "siRNA no.": 2, "G2 robust z-score": 0.491, "G2 cells, % of GMNN control": 6.42}
{"gene symbol": "PZP (PZP alpha-2-macroglobulin like)", "siRNA no.": 3, "G2 robust z-score": -1.17, "G2 cells, % of GMNN control": -5.26}
{"gene symbol": "OR14I1 (olfactory receptor family 14 subfamily I member 1)", "siRNA no.": 1, "G2 robust z-score": -1.06, "G2 cells, % of GMNN control": -4.47}
{"gene symbol": "OR14I1 (olfactory receptor family 14 subfamily I member 1)", "siRNA no.": 2, "G2 robust z-score": -0.314, "G2 cells, % of GMNN control": 0.759}
{"gene symbol": "OR14I1 (olfactory receptor family 14 subfamily I member 1)", "siRNA no.": 3, "G2 robust z-score": 0.0127, "G2 cells, % of GMNN control": 3.06}

Next part (3 carried over from the part before).
{"gene symbol": "OR14I1 (olfactory receptor family 14 subfamily I member 1)", "siRNA no.": 1, "G2 robust z-score": -1.06, "G2 cells, % of GMNN control": -4.47}
{"gene symbol": "OR14I1 (olfactory receptor family 14 subfamily I member 1)", "siRNA no.": 2, "G2 robust z-score": -0.314, "G2 cells, % of GMNN control": 0.759}
{"gene symbol": "OR14I1 (olfactory receptor family 14 subfamily I member 1)", "siRNA no.": 3, "G2 robust z-score": 0.0127, "G2 cells, % of GMNN control": 3.06}
{"gene symbol": "GJC1 (gap junction protein gamma 1)", "siRNA no.": 1, "G2 robust z-score": -0.205, "G2 cells, % of GMNN control": 1.53}
{"gene symbol": "GJC1 (gap junction protein gamma 1)", "siRNA no.": 2, "G2 robust z-score": -0.373, "G2 cells, % of GMNN control": 0.341}
{"gene symbol": "GJC1 (gap junction protein gamma 1)", "siRNA no.": 3, "G2 robust z-score": 0.409, "G2 cells, % of GMNN control": 5.85}
{"gene symbol": "PGM2 (phosphoglucomutase 2)", "siRNA no.": 1, "G2 robust z-score": 1.81, "G2 cells, % of GMNN control": 15.7}
{"gene symbol": "PGM2 (phosphoglucomutase 2)", "siRNA no.": 2, "G2 robust z-score": 1.27, "G2 cells, % of GMNN control": 11.9}
{"gene symbol": "PGM2 (phosphoglucomutase 2)", "siRNA no.": 3, "G2 robust z-score": 0.743, "G2 cells, % of GMNN control": 8.19}
{"gene symbol": "FOLH1B (folate hydrolase 1B (pseudogene))", "siRNA no.": 1, "G2 robust z-score": 0.998, "G2 cells, % of GMNN control": 9.99}
{"gene symbol": "FOLH1B (folate hydrolase 1B (pseudogene))", "siRNA no.": 2, "G2 robust z-score": 1.01, "G2 cells, % of GMNN control": 10.1}
{"gene symbol": "FOLH1B (folate hydrolase 1B (pseudogene))", "siRNA no.": 3, "G2 robust z-score": -0.769, "G2 cells, % of GMNN control": -2.44}
{"gene symbol": "KCNK18 (potassium two pore domain channel subfamily K member 18)", "siRNA no.": 1, "G2 robust z-score": 0.277, "G2 cells, % of GMNN control": 4.91}
{"gene symbol": "KCNK18 (potassium two pore domain channel subfamily K member 18)", "siRNA no.": 2, "G2 robust z-score": 1.41, "G2 cells, % of GMNN control": 12.9}
{"gene symbol": "KCNK18 (potassium two pore domain channel subfamily K member 18)", "siRNA no.": 3, "G2 robust z-score": -0.679, "G2 cells, % of GMNN control": -1.81}
{"gene symbol": "RAB7B (RAB7B, member RAS oncogene family)", "siRNA no.": 1, "G2 robust z-score": -0.409, "G2 cells, % of GMNN control": 0.0921}
{"gene symbol": "RAB7B (RAB7B, member RAS oncogene family)", "siRNA no.": 2, "G2 robust z-score": -1.11, "G2 cells, % of GMNN control": -4.82}
{"gene symbol": "RAB7B (RAB7B, member RAS oncogene family)", "siRNA no.": 3, "G2 robust z-score": -0.713, "G2 cells, % of GMNN control": -2.05}
